Test results: patent US9938261B2, “Heterocyclic compounds and methods of use thereof” (AMBIT BIOSCIENCES CORPORATION, priority 2011, dated 2018)
At least one structure is not confirmed: it was looked up by name or label, or the drawing left a doubt.

Molecular target: kinase panel containing either 386 or 392 distinct kinases
Assay: Kinase selectivity score S10 from competition binding panel
Description: Competition binding assays used herein were developed, validated and performed as described in Fabian et al., Nature Biotechnology 2005, 23, 329-336. Kinases were produced as fusions to T7 phage (See, Fabian et al. or WO04/015142) or alternatively, the kinases were expressed in HEK-293 cells and subsequently tagged with DNA for PCR detection (See, WO08/005310). For the binding assays, streptavidin-coated magnetic beads were treated with biotinylated affinity ligands for 30 min at room temperature to generate affinity resins. The liganded beads were blocked with excess biotin and washed with blocking buffer (SeaBlock (Pierce), 1% BSA, 0.05% Tween 20, 1 mM DTT) to remove unbound ligand and to reduce non-specific binding. Binding reactions were assembled by combining kinase, liganded affinity beads, and test compounds in 1× binding buffer (20% SeaBlock, 0.17×PBS, 0.05% Tween 20, 6 mM DTT). Test compounds were prepared as 100× stocks in DMSO and diluted into the aqueous environment. Kds were determined using an eleven point threefold serial dilutions. DMSO or control compounds were was added to control assays lacking a test compound. Primary screen assays were performed in polypropylene 384-well plates in a final volume of 20-40 μL, while Kd determinations were performed in polystyrene 96-well plates in a final volume of 135 μL. The assay plates were incubated at room temperature with shaking for 1 hour to allow the binding reactions to reach equilibrium, and the affinity beads were washed extensively with wash buffer (1×PBS, 0.05% Tween 20) to remove unbound protein. The beads were then resuspended in elution buffer (1×PBS, 0.05% Tween […] non-biotinylated affinity ligand) and incubated at room temperature with shaking for 30 min. The kinase concentration in the eluates was measured by quantitative PCR.
A selectivity score (S10) is a quantitative measure of selectivity of a compound against a panel of kinases. An S10 was calculated for a compound by dividing the number of kinases found to have a percent of control (DMSO) less than 10 by the total number of distinct kinases tested (excluding mutant variants). Percent of control (POC) is calculated by subtracting the signal of the control compound (POC=0) from the signal of the test compound and dividing the outcome by the signal of DMSO (POC=100) minus the signal of the control compound. For the compounds disclosed herein, S10 scores were obtained by testing the compounds at 10 μM concentration in a kinase panel containing either 386 or 392 distinct kinases.

[1] = 10 μM, panel of 386 or 392 distinct kinases
[2] = compounds at 10 μM, 386 or 392 distinct kinases

Compound	Kinase specificity S(10) [1]	Kinase specificity S(10) [2]
O[C@H]1CCCCC1Nc1nc2ccc(Cn3cnc4cc(F)cnc43)cc2s1 (stereo in doubt) [Example 213, (1S,2S)-2-((6-((6-fluoro-3H-imidazo[4,5-b]pyridin-3-yl)methyl)benzo[d]thiazol-2-yl)amino)cyclohexanol]	B (0.01<B≤0.02)	
COc1ccc2ncn(Cc3ccc4nc(N[C@@H]5CCCC[C@H]5O)sc4c3)c2c1 [Example 67, (1R,2R)-2-((6-((6-methoxy-1H-benzo[d]imidazol-1-yl)methyl)benzo[d]thiazol-2-yl)amino)cyclohexanol]		B (0.01<B≤0.02)
COc1ccccc1Nc1nc2ccc(Cn3cnc4cc(F)cnc43)cc2s1 [Example 197, 6-((6-fluoro-3H-imidazo[4,5-b]pyridin-3-yl)methyl)-N-(2-methoxyphenyl)benzo[d]thiazol-2-amine]	A (A≤0.01)	

Now from value to molecule:

Kinase specificity S(10) [1]	Kinase specificity S(10) [2]	Compound
	A (A≤0.01)	COc1ccc2c(c1)ncn2Cc1ccc2nc(N[C@@H]3CCCC[C@H]3O)sc2c1 [Example 68, (1R,2R)-2-((6-((5-methoxy-1H-benzo[d]imidazol-1-yl)methyl)benzo[d]thiazol-2-yl)amino)cyclohexanol]
B (0.01<B≤0.02)		O[C@@H]1CCCC[C@H]1Nc1nc2ccc(Cn3cnc4cc(C5=CCOCC5)ccc43)cc2s1 [Example 174, (1R,2R)-2-((6-((5-(3,6-dihydro-2H-pyran-4-yl)-1H-benzo[d]imidazol-1-yl)methyl)benzo[d]thiazol-2-yl)amino)cyclohexanol]
